Some of these results come from one statement about several compounds together. No end group written: not given here.
Assays:
Test in all cases: Kinase Profiling Assay
Type in all cases: biochemical
Settings in all cases: in vitro, peptide 100 μM
MAPKAP-K2(h) = molecular target: T1, MAPKAP-K2(h) (Homo sapiens, UniProt P49137)
T1 construct: purchased Millipore
Protocol: (§1) Every kinase activity measurement was conducted in duplicate.
(§2) Specifically, in these assays, a positively charged substrate is phosphorylated with a radiolabeled phosphate group from an ATP if the kinase is not inhibited by an inhibitor peptide. The positively charged substrate then is attracted to a negatively charged filter membrane, quantified with a scintillation counter, and compared to a 100% activity control.
(§3) In addition to determining the IC50 of the compound, the specificity of MK2 inhibitory peptides was assessed by examining activities of all 266 human kinases available for testing in the Millipore kinase profiling service (Table 1).

Sequences of proteins named here, by UniProt entry; tags and fusion partners are left off. Residues count along the entry.
UniProt P49137, whole entry: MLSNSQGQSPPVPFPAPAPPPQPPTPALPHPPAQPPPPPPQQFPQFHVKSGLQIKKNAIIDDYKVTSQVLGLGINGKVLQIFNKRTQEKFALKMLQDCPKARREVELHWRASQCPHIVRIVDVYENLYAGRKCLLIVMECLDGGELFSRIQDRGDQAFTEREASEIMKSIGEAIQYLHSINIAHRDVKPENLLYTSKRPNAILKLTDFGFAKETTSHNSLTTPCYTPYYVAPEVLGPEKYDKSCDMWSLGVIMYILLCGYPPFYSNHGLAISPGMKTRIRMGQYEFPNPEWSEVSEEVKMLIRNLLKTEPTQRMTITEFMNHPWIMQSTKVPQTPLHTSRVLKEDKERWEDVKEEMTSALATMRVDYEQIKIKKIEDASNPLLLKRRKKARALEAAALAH
UniProt Q16644, whole entry: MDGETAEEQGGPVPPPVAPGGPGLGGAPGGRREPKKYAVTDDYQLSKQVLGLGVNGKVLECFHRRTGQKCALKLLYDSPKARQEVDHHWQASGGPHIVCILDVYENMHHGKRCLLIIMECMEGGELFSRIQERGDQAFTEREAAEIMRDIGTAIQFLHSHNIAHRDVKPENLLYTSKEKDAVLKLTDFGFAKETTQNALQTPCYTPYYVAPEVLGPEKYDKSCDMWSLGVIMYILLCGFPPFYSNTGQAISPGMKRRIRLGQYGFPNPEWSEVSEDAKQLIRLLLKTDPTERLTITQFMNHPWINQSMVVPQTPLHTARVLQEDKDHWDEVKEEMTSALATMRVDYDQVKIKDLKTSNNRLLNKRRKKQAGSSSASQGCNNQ
UniProt Q16620, 32-822: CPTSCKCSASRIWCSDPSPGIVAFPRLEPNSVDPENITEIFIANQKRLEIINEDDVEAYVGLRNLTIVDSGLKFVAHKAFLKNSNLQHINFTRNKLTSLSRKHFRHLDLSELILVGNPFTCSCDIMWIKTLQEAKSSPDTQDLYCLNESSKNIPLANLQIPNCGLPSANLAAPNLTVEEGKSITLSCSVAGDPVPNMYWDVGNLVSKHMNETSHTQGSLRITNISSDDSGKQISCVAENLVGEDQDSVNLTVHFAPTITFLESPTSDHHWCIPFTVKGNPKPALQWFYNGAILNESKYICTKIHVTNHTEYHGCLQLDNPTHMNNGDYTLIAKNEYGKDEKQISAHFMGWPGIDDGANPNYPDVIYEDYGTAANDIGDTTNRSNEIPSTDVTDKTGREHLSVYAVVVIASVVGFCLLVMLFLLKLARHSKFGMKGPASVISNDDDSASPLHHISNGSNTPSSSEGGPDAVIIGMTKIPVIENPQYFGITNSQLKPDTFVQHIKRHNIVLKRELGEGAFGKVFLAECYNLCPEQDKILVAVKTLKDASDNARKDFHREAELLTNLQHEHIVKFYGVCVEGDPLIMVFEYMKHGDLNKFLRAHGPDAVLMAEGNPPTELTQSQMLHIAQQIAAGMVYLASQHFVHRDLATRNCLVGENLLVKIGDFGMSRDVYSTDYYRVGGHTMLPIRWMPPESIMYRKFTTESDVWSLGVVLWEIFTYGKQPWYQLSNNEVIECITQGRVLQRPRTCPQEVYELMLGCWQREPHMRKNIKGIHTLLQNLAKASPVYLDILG

MAPKAP-K3(h) = molecular target: T2, MAPKAP-K3(h) (Homo sapiens, UniProt Q16644)
T2 construct: purchased Millipore
Protocol: as §1, §2, §3

TrkB(h) = TrkB(h) (Homo sapiens, UniProt Q16620)
Protocol: as §1, §2, §3

YARAAARQARAKALARQLGVAA [MMI-0100]
more than 65%: inhibition of kinase activity of MK2 (MAPKAP-K2(h)) | inhibition of kinase activity of MK3 (MAPKAP-K3(h)) | inhibition of kinase activity of TrkB (TrkB(h))

Source: patent US20150258192A1, “COMPOSITIONS AND METHODS FOR PREVENTING OR TREATING CHRONIC LUNG ALLOGRAFT DYSFUNCTION (CLAD) AND IDIOPATHIC PULMONARY FIBROSIS (IPF)” (priority 2014, published 2015)
